Test results as given in article PMC7885522.
No constants are given. Whether binding was seen depends on the method and setting. Some entries that bind do so weakly or less than the wild type.

By UniProt entry, the sequences of proteins in these tests, tags left out.
UniProt Q14457: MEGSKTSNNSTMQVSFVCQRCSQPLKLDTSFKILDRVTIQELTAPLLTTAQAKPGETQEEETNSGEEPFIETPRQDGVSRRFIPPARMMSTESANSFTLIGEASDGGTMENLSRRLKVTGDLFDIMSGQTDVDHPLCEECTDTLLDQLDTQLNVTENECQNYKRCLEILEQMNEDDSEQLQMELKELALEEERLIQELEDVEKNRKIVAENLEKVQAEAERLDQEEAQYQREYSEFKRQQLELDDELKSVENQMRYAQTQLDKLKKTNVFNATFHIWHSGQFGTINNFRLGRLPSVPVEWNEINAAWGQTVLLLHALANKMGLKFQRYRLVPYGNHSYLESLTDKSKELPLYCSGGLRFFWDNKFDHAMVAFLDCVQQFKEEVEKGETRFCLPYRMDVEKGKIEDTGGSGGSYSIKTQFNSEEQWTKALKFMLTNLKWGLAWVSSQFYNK
UniProt P09429: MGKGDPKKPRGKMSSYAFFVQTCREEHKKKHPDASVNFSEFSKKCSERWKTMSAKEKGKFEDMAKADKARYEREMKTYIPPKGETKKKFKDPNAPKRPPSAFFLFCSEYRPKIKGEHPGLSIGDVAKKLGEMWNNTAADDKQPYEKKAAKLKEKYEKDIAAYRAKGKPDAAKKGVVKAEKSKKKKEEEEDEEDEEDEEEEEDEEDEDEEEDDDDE

Experiments:
[1] = biological target: Beclin1 (human (endogenous in HepG2)) (UniProt Q14457); experiment: native gel or EMSA; native-PAGE of HepG2 lysate (30 ug protein/well) followed by Western blot with anti-HMGB1; cells treated with CP-ANI
[2] = biological target: Beclin1 (human (endogenous in HepG2)) (UniProt Q14457); experiment: native gel or EMSA; native-PAGE of HepG2 lysate (30 ug protein/well) followed by Western blot with anti-HMGB1; cells treated with CP-Mh
[3] = biological target: Beclin1 (human (endogenous in HepG2)) (UniProt Q14457); experiment: native gel or EMSA; native-PAGE of HepG2 lysate (30 ug protein/well) followed by Western blot with anti-HMGB1; cells treated with CP

Question: Which binding [1] does the source give for HMGB1 (from UniProt P09429 1-215) here?
Answer: Its binding is “no binding (condition: cells treated with CP-ANI)”.

Question: What about the binding [2] of the same substance?
Answer: The binding was “no binding (condition: cells treated with CP-Mh)”.

Question: And the binding [3]?
Answer: Its binding is “binds”.
